Experimental data as given in paper PMC8985307.

Amino acid sequences for entries named in this document (tags omitted).
UniProt O75335: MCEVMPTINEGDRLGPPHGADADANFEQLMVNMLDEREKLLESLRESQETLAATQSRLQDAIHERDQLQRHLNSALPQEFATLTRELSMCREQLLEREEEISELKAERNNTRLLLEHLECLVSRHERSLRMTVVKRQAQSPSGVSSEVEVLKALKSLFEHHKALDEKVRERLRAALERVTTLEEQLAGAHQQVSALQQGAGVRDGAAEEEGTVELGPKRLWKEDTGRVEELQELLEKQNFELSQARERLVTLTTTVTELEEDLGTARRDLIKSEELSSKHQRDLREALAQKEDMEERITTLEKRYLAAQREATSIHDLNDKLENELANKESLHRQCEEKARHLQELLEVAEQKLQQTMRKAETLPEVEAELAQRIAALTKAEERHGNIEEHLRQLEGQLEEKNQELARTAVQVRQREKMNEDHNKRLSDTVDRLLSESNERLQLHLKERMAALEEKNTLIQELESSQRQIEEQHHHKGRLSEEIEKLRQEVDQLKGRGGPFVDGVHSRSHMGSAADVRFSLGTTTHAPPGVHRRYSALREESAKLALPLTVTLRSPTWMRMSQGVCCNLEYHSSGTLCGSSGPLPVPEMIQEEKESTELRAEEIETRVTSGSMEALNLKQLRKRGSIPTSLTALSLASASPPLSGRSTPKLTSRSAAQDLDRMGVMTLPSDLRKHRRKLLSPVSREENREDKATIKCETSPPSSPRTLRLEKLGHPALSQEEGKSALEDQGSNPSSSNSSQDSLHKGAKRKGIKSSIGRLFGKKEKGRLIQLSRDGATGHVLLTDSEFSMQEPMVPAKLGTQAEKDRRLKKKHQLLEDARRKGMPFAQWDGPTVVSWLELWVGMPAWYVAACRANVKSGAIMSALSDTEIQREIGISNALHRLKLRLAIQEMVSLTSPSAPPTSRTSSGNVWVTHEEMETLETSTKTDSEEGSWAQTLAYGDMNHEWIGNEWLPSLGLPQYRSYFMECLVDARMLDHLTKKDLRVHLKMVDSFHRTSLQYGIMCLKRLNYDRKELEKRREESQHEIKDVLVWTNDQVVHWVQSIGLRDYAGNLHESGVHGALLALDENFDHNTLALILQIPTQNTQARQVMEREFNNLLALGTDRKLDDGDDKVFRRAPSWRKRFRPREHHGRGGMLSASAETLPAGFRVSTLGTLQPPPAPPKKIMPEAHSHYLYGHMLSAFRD

Biological target: protein tyrosine phosphatase receptor type F polypeptide interacting protein alpha 4 (PPFIA4) (human (endogenous in C4-2B and LNCaP)) (UniProt O75335)
Experiment: affinity purification with mass spectrometry; C4-2B cell lysates immunoprecipitated with PPFIA4 antibody, SDS-PAGE, Coomassie blue staining, bands cut, LC-MS/MS

- binding: binds
B1: methylenetetrahydrofolate dehydrogenase 2 (MTHFD2) (enzyme, UniProt P13995 36-350)
chain: EAVVISGRKLAQQIKQEVRQEVEEWVASGNKRPHLSVILVGENPASHSYVLNKTRAAAVVGINSETIMKPASISEEELLNLINKLNNDDNVDGLLVQLPLPEHIDERRICNAVSPDKDVDGFHVINVGRMCLDQYSMLPATPWGVWEIIKRTGIPTLGKNVVVAGRSKNVGMPIAMLLHTDGAHERPGGDATVTISHRYTPKEQLKKHTILADIVISAAGIPNLITADMIKEGAAVIDVGINRVHDPVTAKPKLVGDVDFEGVRQKAGYITPVPGGVGPMTVAMLMKNTIIAAKKVLRLEEREVLKSKELGVATN

No constants are given. Whether binding was seen depends on the method and setting. In cells and extracts the contact can be indirect. A yes stands for co-enrichment or nearness to the bait. Other partners may have been found.
